For one substance, binding results are on record in publication PMC6625990, “Structural underpinnings of Ric8A function as a G-protein α-subunit chaperone and guanine-nucleotide exchange factor” (Nature Communications, 2019).

Sequences of proteins named here, by UniProt entry; tags and fusion partners are left off. A change or cut given only in a name is not applied to a line headed by its entry. Residues count along the entry.
UniProt P04695, residues 327-350: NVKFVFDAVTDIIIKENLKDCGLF
UniProt Q5E9J8: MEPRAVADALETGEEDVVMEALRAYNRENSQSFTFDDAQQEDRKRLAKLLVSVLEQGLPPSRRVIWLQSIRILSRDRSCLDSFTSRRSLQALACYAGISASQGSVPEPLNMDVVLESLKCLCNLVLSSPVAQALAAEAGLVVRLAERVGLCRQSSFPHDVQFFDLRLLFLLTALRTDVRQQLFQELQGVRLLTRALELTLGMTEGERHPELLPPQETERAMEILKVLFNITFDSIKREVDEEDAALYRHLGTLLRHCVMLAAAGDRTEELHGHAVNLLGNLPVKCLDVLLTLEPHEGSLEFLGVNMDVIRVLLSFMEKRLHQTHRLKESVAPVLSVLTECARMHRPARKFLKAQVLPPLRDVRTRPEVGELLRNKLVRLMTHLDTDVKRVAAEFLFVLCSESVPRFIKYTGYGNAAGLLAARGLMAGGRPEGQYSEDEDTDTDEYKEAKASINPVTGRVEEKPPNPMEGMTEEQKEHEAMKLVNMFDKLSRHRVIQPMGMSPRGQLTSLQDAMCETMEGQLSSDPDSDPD

Results are given in words; binding and its absence hold for the method and conditions named. Binding can be weak; no strength is given.

For this test, the target named is MBP-Gαt327–350 (UniProt P04695). The test can be described thus: crystal structure; Ric8A1–492/MBP-Gαt327–350 complex, 0.1 M MIB buffer, 25% PEG3350, pH 8.0, 18 °C; both purified.

On to “bovine Ric8A1–492 with an N-terminal His6-tag, as crystallised (from UniProt Q5E9J8) (domain or fragment)”, for which the binding entry was “binds”.
